Test results: PubChem BioAssay AID248 (DTP/NCI, 2004)
The list shows only some results of the screen, not a fair sample: its compounds were picked by chemical class. Other doses and runs of a compound may be missing. T/C is the treated group as % of the vehicle group. For survival time, the PubChem record calls one and a half times the control and up active, and a quarter to a half above the control has no call in these data; cut-offs in other NCI protocols can differ. Some T/C values are marked as having no survivor count here; that says nothing about deaths at the dose. Schedules are NCI's codes, taken here to give the interval after Q, in days (D) or hours (H), and the number of doses after X. Signs of the kind (2×) say how often a value occurs here. Some entries were tested several times; the results are listed from low to high. Some schedule codes hold Z or #, which are not explained here.

System: L1210 leukemia ip in BDF1 mice, survival T/C
Test: NCI In Vivo Anticancer Drug Screen. Data for tumor model L1210 Leukemia (intraperitoneal) in B6D2F1 (BDF1) mice
Details: T/C endpoint: mean survival time, higher T/C = longer survival

`CCCC(O)C#CCN(CCCl)CCCl` (centres undefined) was tested, and the T/C (dose: 2.0 mg/kg/injection, schedule: Q01DX009 (ip), vehicle: saline) was 112 % of control [survivor count not shown], the T/C (dose: 2.5 mg/kg/injection, schedule: Q01DX009 (ip), vehicle: saline) was 110 % of control [survivor count not shown] and the T/C (dose: 3.0 mg/kg/injection, schedule: Q01DX009 (ip), vehicle: saline) was 120 % of control [survivor count not shown]. The T/C (dose: 3.7 mg/kg/injection, schedule: Q01DX009 (ip), vehicle: saline) was 108 % of control [survivor count not shown], the T/C (dose: 5.0 mg/kg/injection, schedule: Q01DX009 (ip), vehicle: saline) was 112 % of control [survivor count not shown] and the T/C (dose: 5.6 mg/kg/injection, schedule: Q01DX009 (ip), vehicle: saline) was 110 % of control [survivor count not shown]. The T/C (dose: 8.0 mg/kg/injection, schedule: Q01DX009 (ip), vehicle: saline) was 137 [survivor count not shown] and 139 % of control [survivor count not shown], the T/C (dose: 8.5 mg/kg/injection, schedule: Q01DX001 (ip), vehicle: saline) was 117 % of control [survivor count not shown] and the T/C (dose: 8.5 mg/kg/injection, schedule: Q01DX009 (ip), vehicle: saline) was 132 [survivor count not shown] and 134 % of control [survivor count not shown]. For the same compound, the T/C (dose: 13.0 mg/kg/injection, schedule: Q01DX001 (ip), vehicle: saline) was 111 % of control [survivor count not shown], the T/C (dose: 13.0 mg/kg/injection, schedule: Q01DX009 (ip), vehicle: saline) was 137 [survivor count not shown] and 138 % of control [survivor count not shown] and the T/C (dose: 15.0 mg/kg/injection, schedule: Q01DX001 (ip), vehicle: saline) was 124 % of control [survivor count not shown]. For the same compound, the T/C (dose: 20.0 mg/kg/injection, schedule: Q01DX001 (ip), vehicle: saline) was 121 % of control [survivor count not shown], the T/C (dose: 20.0 mg/kg/injection, schedule: Q01DX009 (ip), vehicle: saline) was 142 % of control [survivor count not shown] and the T/C (dose: 30.0 mg/kg/injection, schedule: Q01DX001 (ip), vehicle: saline) was 132 [survivor count not shown], 140 [survivor count not shown], 141 % of control [survivor count not shown]. For the same compound, the T/C (dose: 45.0 mg/kg/injection, schedule: Q01DX001 (ip), vehicle: saline) was 144 % of control [survivor count not shown], the T/C (dose: 60.0 mg/kg/injection, schedule: Q01DX001 (ip), vehicle: saline) was 114 % of control [survivor count not shown] and the T/C (dose: 67.0 mg/kg/injection, schedule: Q01DX001 (ip), vehicle: saline) was 139 % of control [survivor count not shown]. The T/C (dose: 75.0 mg/kg/injection, schedule: Q01DX001 (sc), vehicle: saline) was 139 % of control [survivor count not shown].

For `O=C(O)CCOc1ccccc1N(CCCl)CCCl`, the T/C (dose: 1.8 mg/kg/injection, schedule: Q01DX Z (ip), vehicle: methylcellulose (MC)) was 111 % of control [survivor count not shown], the T/C (dose: 2.7 mg/kg/injection, schedule: Q01DX Z (ip), vehicle: methylcellulose (MC)) was 128 % of control [survivor count not shown] and the T/C (dose: 3.75 mg/kg/injection, schedule: Q01DX Z (ip), vehicle: methylcellulose (MC)) was 97 [survivor count not shown], 106 [survivor count not shown], 111 % of control [survivor count not shown]. The T/C (dose: 4.0 mg/kg/injection, schedule: Q01DX Z (ip), vehicle: methylcellulose (MC)) was 125 % of control [survivor count not shown], the T/C (dose: 5.0 mg/kg/injection, schedule: Q01DX001 (ip), vehicle: carboxymethylcellulose (CMC)) was 107 % of control [survivor count not shown] and the T/C (dose: 6.0 mg/kg/injection, schedule: Q01DX Z (ip), vehicle: methylcellulose (MC)) was 130 [survivor count not shown] and 148 % of control [survivor count not shown]. For the same compound, the T/C (dose: 7.5 mg/kg/injection, schedule: Q01DX Z (ip), vehicle: methylcellulose (MC)) was 96 [survivor count not shown], 112 [survivor count not shown], 120 % of control [survivor count not shown], the T/C (dose: 9.0 mg/kg/injection, schedule: Q01DX Z (ip), vehicle: methylcellulose (MC)) was 125 % of control [survivor count not shown] and the T/C (dose: 10.0 mg/kg/injection, schedule: Q01DX001 (ip), vehicle: carboxymethylcellulose (CMC)) was 113 % of control [survivor count not shown]. The T/C (dose: 13.0 mg/kg/injection, schedule: Q01DX Z (ip), vehicle: methylcellulose (MC)) was 168 % of control [survivor count not shown], the T/C (dose: 15.0 mg/kg/injection, schedule: Q01DX Z (ip), vehicle: methylcellulose (MC)) was 98 [survivor count not shown], 107 [survivor count not shown], 111 % of control [survivor count not shown] and the T/C (dose: 17.7 mg/kg/injection, schedule: Q01DX001 (ip), vehicle: carboxymethylcellulose (CMC)) was 109 % of control [survivor count not shown] (2×). The T/C (dose: 20.0 mg/kg/injection, schedule: Q01DX001 (ip), vehicle: carboxymethylcellulose (CMC)) was 125 % of control [survivor count not shown], the T/C (dose: 20.0 mg/kg/injection, schedule: Q01DX Z (ip), vehicle: methylcellulose (MC)) was 128 % of control [survivor count not shown] and the T/C (dose: 26.6 mg/kg/injection, schedule: Q01DX001 (ip), vehicle: carboxymethylcellulose (CMC)) was 109 [survivor count not shown] and 118 % of control [survivor count not shown]. For the same compound, the T/C (dose: 30.0 mg/kg/injection, schedule: Q01DX Z (ip), vehicle: methylcellulose (MC)) was 111 % of control [survivor count not shown], the T/C (dose: 40.0 mg/kg/injection, schedule: Q01DX001 (ip), vehicle: carboxymethylcellulose (CMC)) was 126 [survivor count not shown] and 128 % of control [survivor count not shown] and the T/C (dose: 60.0 mg/kg/injection, schedule: Q01DX001 (ip), vehicle: carboxymethylcellulose (CMC)) was 101 % of control [survivor count not shown]. The T/C (dose: 60.0 mg/kg/injection, schedule: Q01DX Z (ip), vehicle: methylcellulose (MC)) was 102 % of control [survivor count not shown].

In the case of `ClCCN(CCCl)c1ccc(C=C2C=CC=C2)cc1`, the T/C (dose: 88.8 mg/kg/injection, schedule: Q01DX001 (ip), vehicle: carboxymethylcellulose (CMC)) was 90 [survivor count not shown] and 93 % of control [survivor count not shown], the T/C (dose: 100.0 mg/kg/injection, schedule: Q01DX001 (ip), vehicle: carboxymethylcellulose (CMC)) was 94 % of control [survivor count not shown] and the T/C (dose: 133.4 mg/kg/injection, schedule: Q01DX001 (ip), vehicle: carboxymethylcellulose (CMC)) was 95 [survivor count not shown] and 98 % of control [survivor count not shown]. For the same compound, the T/C (dose: 200.0 mg/kg/injection, schedule: Q01DX001 (ip), vehicle: carboxymethylcellulose (CMC)) was 90 [survivor count not shown], 104 [survivor count not shown], 153 % of control [survivor count not shown], the T/C (dose: 300.0 mg/kg/injection, schedule: Q01DX001 (ip), vehicle: carboxymethylcellulose (CMC)) was 93 [survivor count not shown] and 102 % of control [survivor count not shown] and the T/C (dose: 400.0 mg/kg/injection, schedule: Q01DX001 (ip), vehicle: carboxymethylcellulose (CMC)) was 94 % of control [survivor count not shown].
